# Some of these results come from one statement about several compounds together.
# Key:
# [1] = animal models, after oral administration; cited from earlier work
# human subjects = assay: Human subjects' perception of the drug's effect after oral administration; assay type: in vivo; conditions: for onset of human subject's perception of effect / duration of perception of the effect: following oral administration; for onset of human subject's perception of effect: fasting more rapid onset, following a meal less rapid onset; for duration of perception of the effect / perception of peak effect, time after initial perception of onset: human subjects; for duration of perception of the effect: in most cases; for perception of peak effect, time after initial perception of onset: in some cases
SMILES,time at which peak serum concentrations are apparent [1],onset of human subject's perception of effect (human subjects),duration of perception of the effect (human subjects),"perception of peak effect, time after initial perception of onset (human subjects)"
"CNC(C)Cc1ccc2occc2c1 (centres unmarked) [5-MAPB, 1-(Benzofuran-5-yl)-N-methylpropan-2-amine]",5 to 10 min,30 to 90 min,≤ 4 h,10 to 30 min
"CC(N)Cc1ccc2ccoc2c1 (centres unmarked) [6-APB, 1-Benzofuran-6-yl propan-2-amine]",5 to 10 min,30 to 90 min,≤ 4 h,10 to 30 min

# From patent US20240423950A1, “5-MAPB OR 6-APB FOR USE IN DRUG-ASSISTED PSYCHOTHERAPY” (CLEARMIND MEDICINE INC., priority 2021, published 2024)
